Measured values as given in patent US20210396758A1.
No constants are given. Whether binding was seen depends on the method and setting. Sequences can lack the tags named with a protein.

Molecular target: Glutathione S-transferase
Test: QC ELISA of the chimeric human/mouse IgG1 antibody on immobilized control protein; signal over background

Binder | binding
AbD33473 full length chimeric antibody against human Ambra-1 with an IgG1 mouse Fc region (antibody, V domains shown) VH: EVQLVQSGAEVKKPGESLKISCKGSGYSFSSYWIHWVRQMPGKGLEWMGTIFPSRSYTTYSPSFQGQVTISADKSISTAYLQWSSLKASDTAMYYCARDTPSTALKSPFDYWGQGTLVTVSS VL: DIVLTQPPSVSGAPGQRVTISCSGSSSNIGYNYVYWYQQLPGTAPKLLIYENNKRPSGVPDRFSGSKSGTSASLAITGLQAEDEADYYCSSWDSHSNSYVFGGGTKLTVLG | no binding
AbD33047 full length chimeric antibody against human Loricrin with an IgG1 mouse Fc region (antibody, V domains shown) VH: QVQLVQSGAEVKKPGASVKVSCKASGYTFNDYYIHWVRQAPGQGLEWMGVISPNSGKTNYAQKFQGRVTMTRDTSISTAYMELSRLRSEDTAVYYCARDLYPDSSAFDIWGQGTLVTVSS VL: DIELTQPPSVSVSPGQTASITCSGDNLGDKYAHWYQQKPGQAPVLVIYDDNERPSGIPERFSGSNSGNTATLTISGTQAEDEADYYCQSYDSGNRVFGGGTKLTVLG | no binding
